Test results published in US20200299612A1, “HIGH PERFORMING, HIGH IMPACT BLOOM ACCORD” (International Flavors & Fragrances Inc., priority 2016, published 2020).

Assay: Experimental velocity of single fragrance ingredients (60 cm divided by time to olfactory detection) from model powder detergent in water
Conditions: 10 g model powder detergent in 2 liters of water, 25° C.

SMILES | EV (Experimental velocity) (Table 2, Class 2 ingredients) [cm/s] | EV (Experimental velocity) (Table 1, Class 1 ingredients) [cm/s]
CC(C)=CCC/C(C)=C/CCC=O [(E)-5,9-dimethyldeca-4,8-dienal] | 5 | –
CCCCCCCCCCC=O [undecanal] | 6 | –
CCC/C=C/CCCCC=O [(E)-dec-6-enal] | 8 | –
CC1=CCC(=C(C)C)CC1 [1-methyl-4-(propan-2-ylidene)cyclohex-1-ene] | 8 | –
CCOC(=O)C(C)C [ethyl isobutyrate] | 5 | –
CC(CC=O)CC(C)(C)C (stereo not shown) [3,5,5-trimethylhexanal] | 5 | –
COCCc1ccccc1 [(2-methoxyethyl)benzene] | – | 9
O=CCC/C=C1\CC2CC1C1CCCC21 (stereo not shown) [(E)-4-(hexahydro-1H-4,7-methanoinden-5(6H)-ylidene)butanal] | 5 | –
CC(=O)/C=C/C1=C(C)CCCC1(C)C [(E)-4-(2,6,6-trimethylcyclohex-1-en-1-yl)but-3-en-2-one] | 7 | –
CC(=O)OCCc1ccccc1 [phenyl ethyl acetate] | 7 | –
CCCCCCCCCCCC#N [dodecanenitrile] | 6 | –
C=CC(C)(CCC=C(C)C)OC(C)=O (stereo not shown) [3,7-dimethylocta-1,6-dien-3-yl acetate] | 6 | –
CCC=CCCC=CC#N [2,6-nonadienenitrile] | – | 16
O=CC1CC[C@H]2[C@@H]3CC[C@@H](C3)[C@@H]12 (stereo partly drawn) [(3aS,4R,7S,7aR)-octahydro-1H-4,7-methanoindene-1-carbaldehyde] | 6 | –
CC(=O)Oc1ccc(C)cc1 [p-tolyl acetate] | 6 | –
CC(C)=C[C@H]1C[C@@H](C)CCO1 [(2R,4S)-4-methyl-2-(2-methylprop-1-en-1-yl)tetrahydro-2H-pyran] | – | 12
CCCCCCCCCC/C=C/C#N [(E)-tridec-2-enenitrile] | 6 | –
CCCCCCCCC=O [nonanal] | – | 13
Cc1csc(C(C)C)n1 [2-isopropyl-4-methylthiazole] | – | 9
CC(C=O)Cc1ccc(C(C)(C)C)cc1 (stereo not shown) [3-(4-(tert-butyl)phenyl)-2-methylpropanal] | 6 | –
C=CC(C)(O)CCC=C(C)C (stereo not shown) [3,7-dimethylocta-1,6-dien-3-ol] | 6 | –
CCOC(=O)[C@@H]1C[C@@H]2C=C[C@H]1C2 [(1R,2R,4R)-ethyl bicyclo[2.2.1]hept-5-ene-2-carboxylate] | – | 10
